# For some of these results: At least one structure is not confirmed: it was looked up by name or label, or the drawing left a doubt. Some of these results come from one statement about several compounds together.
# Tests used:
# LNCaP cells = test: LNCaP cell growth, cell count by hemocytometer; assay type: cell-based, human
# PSA = PSA expression in LNCaP cells, Western blot; assay type: cell-based, human; conditions: 48 h, 1 nM DHT or 1 μM HF, casodex, ADEK in absence of DHT
Compound,"effect on LNCaP cell growth, DHT alone or compound with DHT (in words) (LNCaP cells; 1 nM DHT, 1 μM compound in presence of DHT)","effect on LNCaP cell growth in the absence of androgen (in words) (LNCaP cells; 1 μM compound, no DHT)",endogenous PSA expression over mock treatment (PSA)
"CC(O)(CS(=O)(=O)c1ccc(F)cc1)C(=O)Nc1ccc(C#N)c(C(F)(F)F)c1 (stereo not shown) [casodex, bicalutamide]",antagonized this DHT effect,marginally increased growth,less than 2 fold
"CC(=O)O[C@H]1C=C[C@@]2(C)C(=CC[C@@H]3[C@@H]2CC[C@@]2(C)[C@H]3CCC23OCCO3)C1 [ADEK, 3β-acetoxy-17,17-ethylenedioxyandrosta-1,5-diene]",,,less than 2 fold

# Reference: patent US7638509B2, “Diene compounds and formulations” (priority 2003, dated 2009)
